Laboratory results published in publication PMC7749160.
Results are given in words; binding and its absence hold for the method and conditions named. For part of these data: Binding seen in cells or lysates may run through a third protein. Some binding calls cover weakened binding; strength is not graded here. Where a sequence is shown, tags or fusion partners need not be part of it. Values belong to the binder of their own block, whether it stands above or below them.

Key:
[1] = target: T1, Mycobacterium smegmatis RbpA-FLAG (Mycobacterium smegmatis) (UniProt A0QZ11); test: co-IP; M. smegmatis lysates (20 mM Tris-HCl pH 8, 150 mM KCl, 1 mM MgCl2) on ANTI-FLAG M2 agarose overnight at 4 °C, eluted with 3x FLAG peptide; SDS-PAGE with bands identified by mass spectrometry, or western blot (anti-β, anti-σA)
T1 sequence: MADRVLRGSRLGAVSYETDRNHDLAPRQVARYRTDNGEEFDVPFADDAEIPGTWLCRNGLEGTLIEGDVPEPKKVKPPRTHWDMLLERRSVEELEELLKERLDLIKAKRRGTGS

[2] = target: FLAG-tagged Mycobacterium smegmatis RNAP (FLAG on the β subunit), strain LK1468 (Mycobacterium smegmatis | Mycobacterium smegmatis (endogenous in M. smegmatis mc2 155)) (UniProt P60281+A0QSL8+A0QS66+A0QWT1); test: as above
[3] = target: Mycobacterium smegmatis RNA polymerase core, recombinant (strain LK1853, for biochemical assays) (Mycobacterium smegmatis) (UniProt A0QSL8+P60281+A0QS66+A0QWT1); test: native gel or EMSA; 7% Tris-acetate native gel, 1x STB buffer (50 mM Tris-HCl pH 8.0, 5 mM Mg acetate, 100 µM DTT, 50 mM KCl, 50 µg/ml BSA); RNAP 25 pmol, HelD 125 pmol, σA 1250 pmol, RbpA 1250 pmol; RNAP first reconstituted with/without HelD (37 °C, 45 min), then RbpA and/or σA (37 °C, 45 min); proteins of each band identified by MALDI MS; both purified
[4] = target: T2, Mycobacterium smegmatis HelD-FLAG (Mycobacterium smegmatis) (UniProt A0QUE0); test: co-IP; M. smegmatis lysates (20 mM Tris-HCl pH 8, 150 mM KCl, 1 mM MgCl2) on ANTI-FLAG M2 agarose overnight at 4 °C, eluted with 3x FLAG peptide; SDS-PAGE with bands identified by mass spectrometry, or western blot (anti-β, anti-σA)
T2 sequence: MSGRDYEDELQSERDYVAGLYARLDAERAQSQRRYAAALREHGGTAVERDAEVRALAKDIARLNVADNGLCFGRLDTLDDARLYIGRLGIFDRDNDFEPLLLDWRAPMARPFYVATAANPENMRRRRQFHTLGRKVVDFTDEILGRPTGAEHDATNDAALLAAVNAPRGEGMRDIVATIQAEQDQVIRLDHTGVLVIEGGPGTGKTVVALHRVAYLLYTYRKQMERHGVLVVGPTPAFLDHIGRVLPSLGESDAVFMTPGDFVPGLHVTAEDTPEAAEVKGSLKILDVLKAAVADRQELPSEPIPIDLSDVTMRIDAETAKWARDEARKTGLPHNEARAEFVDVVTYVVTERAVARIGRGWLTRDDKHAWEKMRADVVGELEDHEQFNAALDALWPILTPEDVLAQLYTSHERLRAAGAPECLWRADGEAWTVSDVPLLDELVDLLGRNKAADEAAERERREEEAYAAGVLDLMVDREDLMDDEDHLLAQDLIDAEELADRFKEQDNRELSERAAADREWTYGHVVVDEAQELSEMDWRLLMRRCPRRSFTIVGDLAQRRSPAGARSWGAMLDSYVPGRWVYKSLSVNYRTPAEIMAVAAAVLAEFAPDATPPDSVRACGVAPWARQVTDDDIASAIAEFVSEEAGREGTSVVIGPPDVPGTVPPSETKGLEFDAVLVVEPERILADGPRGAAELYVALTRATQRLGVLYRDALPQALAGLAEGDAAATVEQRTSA

[5] = target: Preformed complex of Mycobacterium smegmatis RNAP core (m3) and HelD (m1) (Mycobacterium smegmatis | Mycobacterium smegmatis (strain ATCC 700084/mc2 155)) (UniProt A0QSL8+P60281+A0QS66+A0QWT1+A0QUE0); test: native gel or EMSA; 7% Tris-acetate native gel, 1x STB buffer (50 mM Tris-HCl pH 8.0, 5 mM Mg acetate, 100 µM DTT, 50 mM KCl, 50 µg/ml BSA); RNAP 25 pmol, HelD 125 pmol, σA 1250 pmol, RbpA 1250 pmol; RNAP first reconstituted with/without HelD (37 °C, 45 min), then RbpA and/or σA (37 °C, 45 min); proteins of each band identified by MALDI MS; both purified

binding [1]: binds
binding [2]: binds
B1: Mycobacterium smegmatis HelD (MSMEG_2174), endogenous (protein, UniProt A0QUE0 1-736)
chain: T2 sequence

binding [3]: binds
B2: Mycobacterium smegmatis HelD (MSMEG_2174), recombinant (protein, UniProt A0QUE0 2-736)
chain: SGRDYEDELQSERDYVAGLYARLDAERAQSQRRYAAALREHGGTAVERDAEVRALAKDIARLNVADNGLCFGRLDTLDDARLYIGRLGIFDRDNDFEPLLLDWRAPMARPFYVATAANPENMRRRRQFHTLGRKVVDFTDEILGRPTGAEHDATNDAALLAAVNAPRGEGMRDIVATIQAEQDQVIRLDHTGVLVIEGGPGTGKTVVALHRVAYLLYTYRKQMERHGVLVVGPTPAFLDHIGRVLPSLGESDAVFMTPGDFVPGLHVTAEDTPEAAEVKGSLKILDVLKAAVADRQELPSEPIPIDLSDVTMRIDAETAKWARDEARKTGLPHNEARAEFVDVVTYVVTERAVARIGRGWLTRDDKHAWEKMRADVVGELEDHEQFNAALDALWPILTPEDVLAQLYTSHERLRAAGAPECLWRADGEAWTVSDVPLLDELVDLLGRNKAADEAAERERREEEAYAAGVLDLMVDREDLMDDEDHLLAQDLIDAEELADRFKEQDNRELSERAAADREWTYGHVVVDEAQELSEMDWRLLMRRCPRRSFTIVGDLAQRRSPAGARSWGAMLDSYVPGRWVYKSLSVNYRTPAEIMAVAAAVLAEFAPDATPPDSVRACGVAPWARQVTDDDIASAIAEFVSEEAGREGTSVVIGPPDVPGTVPPSETKGLEFDAVLVVEPERILADGPRGAAELYVALTRATQRLGVLYRDALPQALAGLAEGDAAATVEQRTSA

binding [4]: binds
B3: Mycobacterium smegmatis RbpA, endogenous (protein, UniProt A0QZ11 1-114)
chain: T1 sequence

binding [5]: binds
binding [3]: binds
B4: Mycobacterium smegmatis RbpA (MSMEG_3858), recombinant (protein, UniProt A0QZ11 1-114)
chain: T1 sequence
